No constants are given. Whether binding was seen depends on the method and setting. Binding seen in cells or lysates may run through a third protein. Some entries that bind do so weakly or less than the wild type.
Molecular target: Protein arginine methyltransferase 5 (human (endogenous in CHLA20 and NGP)) (UniProt O14744)
Experiment: co-IP

Protein sequences, listed by entry. Tags and fused reporters are not part of them.
UniProt O14744: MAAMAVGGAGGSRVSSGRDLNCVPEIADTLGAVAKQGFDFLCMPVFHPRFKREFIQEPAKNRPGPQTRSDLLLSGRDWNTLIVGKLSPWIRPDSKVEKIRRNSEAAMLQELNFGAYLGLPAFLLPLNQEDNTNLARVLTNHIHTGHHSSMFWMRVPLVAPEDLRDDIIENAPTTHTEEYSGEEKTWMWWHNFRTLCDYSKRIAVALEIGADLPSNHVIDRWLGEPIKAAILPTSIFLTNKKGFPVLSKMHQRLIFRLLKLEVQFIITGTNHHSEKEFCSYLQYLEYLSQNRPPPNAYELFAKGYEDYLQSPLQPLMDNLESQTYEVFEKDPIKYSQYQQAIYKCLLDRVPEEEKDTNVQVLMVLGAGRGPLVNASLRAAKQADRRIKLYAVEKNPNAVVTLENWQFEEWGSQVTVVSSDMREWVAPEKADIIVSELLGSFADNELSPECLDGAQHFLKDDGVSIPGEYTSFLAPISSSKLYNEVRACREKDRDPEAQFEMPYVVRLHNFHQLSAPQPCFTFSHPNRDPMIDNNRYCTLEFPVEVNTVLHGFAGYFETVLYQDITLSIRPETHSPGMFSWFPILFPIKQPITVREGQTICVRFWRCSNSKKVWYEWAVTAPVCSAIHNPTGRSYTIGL
UniProt P31749: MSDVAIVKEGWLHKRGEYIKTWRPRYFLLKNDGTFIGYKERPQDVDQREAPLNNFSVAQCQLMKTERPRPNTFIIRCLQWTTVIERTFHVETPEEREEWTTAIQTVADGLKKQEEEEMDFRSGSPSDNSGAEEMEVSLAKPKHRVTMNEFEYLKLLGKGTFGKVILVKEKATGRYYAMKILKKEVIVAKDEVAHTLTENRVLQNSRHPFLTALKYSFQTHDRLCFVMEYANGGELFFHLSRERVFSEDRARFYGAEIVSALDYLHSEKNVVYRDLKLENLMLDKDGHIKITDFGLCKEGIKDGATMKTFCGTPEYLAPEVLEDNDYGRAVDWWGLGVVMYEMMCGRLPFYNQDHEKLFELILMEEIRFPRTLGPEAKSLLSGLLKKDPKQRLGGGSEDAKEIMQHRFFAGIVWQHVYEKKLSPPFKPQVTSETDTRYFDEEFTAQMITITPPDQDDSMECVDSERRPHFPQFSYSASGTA

AKT1 (from UniProt P31749 1-480) was tested, and the binding was “binds”.

— doi:10.1101/2020.08.12.246660
